From patent US20060147922A1, “Novel diagnostic and therapeutic methods and reagents therefor” (priority 2002, published 2006)
Numbering of substitutions follows the chain as printed. Results are given in words; binding and its absence hold for the method and conditions named. Binding seen in cells or lysates may run through a third protein. Some binding calls cover weakened binding; strength is not graded here. For some of these results: Tags and fused reporters may be left off the sequences shown. Values belong to the binder of their own block, whether it stands above or below them.

Protein sequences, listed by entry. Tags and fused reporters are not part of them. Lines headed by an entry give the natural chain unless they say otherwise; changes in a name come on top.
UniProt P52294: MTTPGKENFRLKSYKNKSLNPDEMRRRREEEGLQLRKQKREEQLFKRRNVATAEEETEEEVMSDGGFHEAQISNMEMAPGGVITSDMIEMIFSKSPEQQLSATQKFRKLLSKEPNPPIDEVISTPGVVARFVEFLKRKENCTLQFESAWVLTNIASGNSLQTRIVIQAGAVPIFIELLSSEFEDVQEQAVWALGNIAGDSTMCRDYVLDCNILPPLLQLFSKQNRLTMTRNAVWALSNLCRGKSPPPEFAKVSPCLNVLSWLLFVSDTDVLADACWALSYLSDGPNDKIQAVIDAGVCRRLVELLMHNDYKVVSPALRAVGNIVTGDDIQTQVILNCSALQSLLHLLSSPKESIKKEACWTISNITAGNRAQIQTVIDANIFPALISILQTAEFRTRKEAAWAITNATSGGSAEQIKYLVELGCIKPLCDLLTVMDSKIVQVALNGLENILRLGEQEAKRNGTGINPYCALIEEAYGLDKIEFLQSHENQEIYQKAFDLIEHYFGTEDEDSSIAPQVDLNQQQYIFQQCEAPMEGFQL
UniProt P06401: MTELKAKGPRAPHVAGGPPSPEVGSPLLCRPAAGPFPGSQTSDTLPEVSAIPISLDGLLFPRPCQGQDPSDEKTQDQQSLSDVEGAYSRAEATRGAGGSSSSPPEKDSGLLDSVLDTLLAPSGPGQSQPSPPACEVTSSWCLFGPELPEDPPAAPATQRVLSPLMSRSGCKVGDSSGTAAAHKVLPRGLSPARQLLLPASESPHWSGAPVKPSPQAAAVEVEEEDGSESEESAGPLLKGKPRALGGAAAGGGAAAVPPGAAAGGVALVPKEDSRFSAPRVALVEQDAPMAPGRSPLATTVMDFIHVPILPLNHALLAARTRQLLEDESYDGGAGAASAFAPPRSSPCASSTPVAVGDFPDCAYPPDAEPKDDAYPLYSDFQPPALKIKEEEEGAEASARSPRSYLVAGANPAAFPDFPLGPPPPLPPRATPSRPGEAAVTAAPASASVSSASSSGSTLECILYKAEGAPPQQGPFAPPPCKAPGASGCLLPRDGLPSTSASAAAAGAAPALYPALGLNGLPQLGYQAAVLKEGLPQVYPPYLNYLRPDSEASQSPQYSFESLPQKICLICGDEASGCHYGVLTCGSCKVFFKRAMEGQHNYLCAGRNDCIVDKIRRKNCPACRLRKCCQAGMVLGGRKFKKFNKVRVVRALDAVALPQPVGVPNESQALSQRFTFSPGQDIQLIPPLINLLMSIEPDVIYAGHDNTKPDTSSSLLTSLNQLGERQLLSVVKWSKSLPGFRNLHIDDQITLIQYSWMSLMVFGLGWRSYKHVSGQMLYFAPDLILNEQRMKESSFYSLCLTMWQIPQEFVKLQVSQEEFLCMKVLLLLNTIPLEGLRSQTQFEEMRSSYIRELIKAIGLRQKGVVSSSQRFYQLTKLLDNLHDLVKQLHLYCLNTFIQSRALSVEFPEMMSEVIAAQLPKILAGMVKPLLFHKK
UniProt O96017: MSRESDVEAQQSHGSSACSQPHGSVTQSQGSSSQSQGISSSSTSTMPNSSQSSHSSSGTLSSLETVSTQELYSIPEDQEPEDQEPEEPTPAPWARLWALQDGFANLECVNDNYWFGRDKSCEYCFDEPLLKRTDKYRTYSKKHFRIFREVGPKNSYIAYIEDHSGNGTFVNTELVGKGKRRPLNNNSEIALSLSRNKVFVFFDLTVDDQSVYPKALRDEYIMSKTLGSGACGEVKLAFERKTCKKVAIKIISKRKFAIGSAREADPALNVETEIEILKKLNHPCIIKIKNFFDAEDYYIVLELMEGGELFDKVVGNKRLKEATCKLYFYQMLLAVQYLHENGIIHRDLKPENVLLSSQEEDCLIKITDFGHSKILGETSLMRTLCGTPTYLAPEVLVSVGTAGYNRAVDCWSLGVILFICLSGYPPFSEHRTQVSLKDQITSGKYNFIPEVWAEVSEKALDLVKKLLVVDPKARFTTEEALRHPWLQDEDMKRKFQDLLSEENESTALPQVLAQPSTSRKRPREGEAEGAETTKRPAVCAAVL

How the values were obtained:
[1] = target: GST fused to amino acids 263-538 of human importin α5 (NPI-1) (human) (UniProt P52294); experiment: GST pull-down of IVT 35S-EDD fragments
[2] = target: GST-PR(CDE) fusion protein (human PR B aa 456-933) (human) (UniProt P06401); experiment: GST-PR(CDE) pull-down of IVT 35S-EDD fragments
[3] = target: GST fused to amino acids 263-538 of human importin α5 (NPI-1) (human) (UniProt P52294); experiment: GST pull-down of IVT N-terminal EDD derivatives
[4] = target: GST-PR(CDE) fusion protein (human PR B aa 456-933) (human) (UniProt P06401); experiment: GST-PR(CDE) pull-down of IVT N-terminal EDD derivatives
[5] = target: T1, GST-CIB fusion protein (full-length CIB in pGEX2T) (human) (UniProt Q99828); experiment: GST-CIB pull-down of IVT 35S-EDD fragments
T1 sequence: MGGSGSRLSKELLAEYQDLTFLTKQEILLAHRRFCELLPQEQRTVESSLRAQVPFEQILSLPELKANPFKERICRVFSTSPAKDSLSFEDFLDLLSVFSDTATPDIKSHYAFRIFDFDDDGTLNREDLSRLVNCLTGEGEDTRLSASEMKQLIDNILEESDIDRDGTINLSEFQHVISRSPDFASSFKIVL

[6] = target: GSTchk2-N (GST fused to chk2 aa 1-225) (human) (UniProt O96017); experiment: GSTchk2-N pull-down of IVT 35S-EDD deletion mutants

B1: EDDF1, N-terminal domain of EDD (aa 1-889) (protein)
chain: MTSIHFVVHPLPGTEDQLNDRLREVSEKLNKYNLNSHPPLNVLEQATIKQCVVGPNHAAFLLEDGRVCRIGFSVQPDRLELGKPDNNDGSKLNSNSGAGRTSRPGRTSDSPWFLSGSETLGRLAGNTLGSRWSSGVGGSGGGSSGRSSAGARDSRRQTRVIRTGRDRGSGLLGSQPQPVIPASVIPEELISQAQVVLQGKSRSVIIRELQRTNLDVNLAVNNLLSRDDEDGDDGDDTASESYLPGEDLMSLLDADIHSAHPSVIIDADAMFSEDISYFGYPSFRRSSLSRLGSSRVLLLPLERDSELLRERESVLRLRERRWLDGASFDNERGSTSKEGEPNLDKKNTPVQSPVSLGEDLQWWPDKDGTKFICIGALYSELLAVSSKGELYQWKWSESEPYRNAQNPSLHHPRATFLGLTNEKIVLLSANSIRATVATENNKVATWVDETLSSVASKLEHTAQTYSELQGERIVSLHCCALYTCAQLENSLYWWGVVPFSQRKKMLEKARAKNKKPKSSAGISSMPNITVGTQVCLRNNPLYHAGAVAFSISAGIPKVGVLMESVWNMNDSCRFQLRSPESLKNMEKASKTTEAKPESKQEPVKTEMGPPPSPASTCSDASSIASSASMPYKRRRSTPAPKEEEKVNEEQWSLREVVFVEDVKNVPVGKVLKVDGAYVAVKFPGTSSNTNCQNSSGPDADPSSLLQDCRLLRIDELQVVKTGGTPKVPDCFQRTPKKLCIPEKTEILAVNVDSKGVHAVLKTGNWVRYCIFDLATGKAEQENNFPTSSIAFLGQNERNVAIFTAGQESPIILRDGNGTIYPMAKDCMGGIRDPDWLDLPPISSLGMGVHSLINLPANSTIKKKAAVIIMAVEKQTLMQHILRCDYEACR
binding [1]: binds | binding [2]: binds

B3: EDDF1b (EDD aa 578-889) (protein)
chain: SPESLKNMEKASKTTEAKPESKQEPVKTEMGPPPSPASTCSDASSIASSASMPYKRRRSTPAPKEEEKVNEEQWSLREVVFVEDVKNVPVGKVLKVDGAYVAVKFPGTSSNTNCQNSSGPDADPSSLLQDCRLLRIDELQVVKTGGTPKVPDCFQRTPKKLCIPEKTEILAVNVDSKGVHAVLKTGNWVRYCIFDLATGKAEQENNFPTSSIAFLGQNERNVAIFTAGQESPIILRDGNGTIYPMAKDCMGGIRDPDWLDLPPISSLGMGVHSLINLPANSTIKKKAAVIIMAVEKQTLMQHILRCDYEACR
binding [3]: binds | binding [4]: binds

B4: EDDF1d (EDD aa 420-889) (protein)
chain: TNEKIVLLSANSIRATVATENNKVATWVDETLSSVASKLEHTAQTYSELQGERIVSLHCCALYTCAQLENSLYWWGVVPFSQRKKMLEKARAKNKKPKSSAGISSMPNITVGTQVCLRNNPLYHAGAVAFSISAGIPKVGVLMESVWNMNDSCRFQLRSPESLKNMEKASKTTEAKPESKQEPVKTEMGPPPSPASTCSDASSIASSASMPYKRRRSTPAPKEEEKVNEEQWSLREVVFVEDVKNVPVGKVLKVDGAYVAVKFPGTSSNTNCQNSSGPDADPSSLLQDCRLLRIDELQVVKTGGTPKVPDCFQRTPKKLCIPEKTEILAVNVDSKGVHAVLKTGNWVRYCIFDLATGKAEQENNFPTSSIAFLGQNERNVAIFTAGQESPIILRDGNGTIYPMAKDCMGGIRDPDWLDLPPISSLGMGVHSLINLPANSTIKKKAAVIIMAVEKQTLMQHILRCDYEACR
binding [3]: binds | binding [4]: binds

B7: EDDF7 (EDDF5 without the RING-like domain) (protein)
chain: VKELQNKYTPGRREEAIAVTMRFLRSVARVFVILSVEMASSKKKNNFIPQPIGKCKRVFQALLPYAVEELCNVAESLIVPVRMGIARPTAPFTLASTSIDAMQGSEELFSVEPLPPRPSSDQSSSSSQSQSSYIIRNPQQRRISQSQPVRGRDEEQDDIVSADVEEVEVVEGVAGEEDHHDEQEEHGEENAEAEGQHDEHDEDGSDMELDLLAAAETESDSESNHSNQDNASGRRSVVTAATAGSEAGASSVPAFFSEDDSQSNDSSDSDSSSSQSDDIEQETFMLDEPLERTTNSSHANGAAQAPRSMQWAVRNTQHQRAASTAPSSTSTPAASSAGLIYIDPSNLRRSGTISTSAAAAAAALEASNASSYLTSASSLARAYSIVIRQISDLMGLIPKYNHLVYSQIPAAVKLTYQDAVNLQNYVEEKLIPTWNWMVSIMDSTEAQLRYGSALASAGDPGHPNHPLHASQNSARRERMTAREEASLRTLEGRRRATLLSARQGMMSARGDFLNYALSLMRSHNDEHSDVLPVLDVCSLKHVAYVFQALIYWIKAMNQQTTLDTPQLERKRTRELLELGIDNEDSEHENDDDTNQSATLNDKDDDSLPAETGQNHPFFRRSDSMTFLGCIPPNPFEVPLAEAIPLADQPHLLQPNARKEDLFGRPSQGLYSSSASSGKCLMEVTVDRNCLEVLPTKMSYAANLKNVMNMQNRQKKEGEEQPVLPEETESSKPGPSAHDLAAQLKSSLLAEIGLTESEGPPLTSFRPQCSFMGMVISHDMLLGRWRLSLELFGRVFMEDVGAEPGSILTELGGFEVKESKFRREMEKLRNQQSRDLSLEVDRDRDLLIQQTMRQLNNHFGRRCATTPMAVHRVKVTFKDEPGEGSGVARSFYTAIAQAFLSNEKLPNLECIQNANKGTHTSLMQRLRNRGERDREREREREMRRSSGLRAGSRRDRDRDFRRQLSIDTRPFRPASEGNPSDDPEPLPAHRQALGERLYPRVQAMQPAFASKITGMLLELSPAQLLLLLASEDSLRARVDEAMELIIAHGRENGADSILDLGLVDSSEKVQQENRKRHGSSRSVVDMDLDDTDDGDDNAPLFYQPGKRGFYTPRPGKNTEARLNCFRNIGRILGLCLLQNELCPITLNRHVIKVLLGRKVNWHDFAFFDPVMYESLRQLILASQSSDADAVFSAMDLAFAIDLCKEEGGGQVELIPNGVNIPVTPQNVYEYVRKYAEHRMLVVAEQPLHAMRKGLLDVLPKNSLEDLTAEDFRLLVNGCGEVNVQMLISFTSFNDESGENAEKLLQFKRWFWSIVEKMSMTERQDLVYFWTSSPSLPASEEGFQPMPSITIRPPDDQHLPTANTCISRLYVPLYSSKQILKQKLLLAIKTKNFGFV
binding [6]: binds

Next, values leading:

binding [3]: binds
B2: EDDF1a (EDD aa 1-577) (protein)
chain: MTSIHFVVHPLPGTEDQLNDRLREVSEKLNKYNLNSHPPLNVLEQATIKQCVVGPNHAAFLLEDGRVCRIGFSVQPDRLELGKPDNNDGSKLNSNSGAGRTSRPGRTSDSPWFLSGSETLGRLAGNTLGSRWSSGVGGSGGGSSGRSSAGARDSRRQTRVIRTGRDRGSGLLGSQPQPVIPASVIPEELISQAQVVLQGKSRSVIIRELQRTNLDVNLAVNNLLSRDDEDGDDGDDTASESYLPGEDLMSLLDADIHSAHPSVIIDADAMFSEDISYFGYPSFRRSSLSRLGSSRVLLLPLERDSELLRERESVLRLRERRWLDGASFDNERGSTSKEGEPNLDKKNTPVQSPVSLGEDLQWWPDKDGTKFICIGALYSELLAVSSKGELYQWKWSESEPYRNAQNPSLHHPRATFLGLTNEKIVLLSANSIRATVATENNKVATWVDETLSSVASKLEHTAQTYSELQGERIVSLHCCALYTCAQLENSLYWWGVVPFSQRKKMLEKARAKNKKPKSSAGISSMPNITVGTQVCLRNNPLYHAGAVAFSISAGIPKVGVLMESVWNMNDSCRFQLR

binding [5]: binds
B5: EDDF3, carboxy domain of EDD (aa 1877-2799) (protein)
chain: NSARRERMTAREEASLRTLEGRRRATLLSARQGMMSARGDFLNYALSLMRSHNDEHSDVLPVLDVCSLKHVAYVFQALIYWIKAMNQQTTLDTPQLERKRTRELLELGIDNEDSEHENDDDTNQSATLNDKDDDSLPAETGQNHPFFRRSDSMTFLGCIPPNPFEVPLAEAIPLADQPHLLQPNARKEDLFGRPSQGLYSSSASSGKCLMEVTVDRNCLEVLPTKMSYAANLKNVMNMQNRQKKEGEEQPVLPEETESSKPGPSAHDLAAQLKSSLLAEIGLTESEGPPLTSFRPQCSFMGMVISHDMLLGRWRLSLELFGRVFMEDVGAEPGSILTELGGFEVKESKFRREMEKLRNQQSRDLSLEVDRDRDLLIQQTMRQLNNHFGRRCATTPMAVHRVKVTFKDEPGEGSGVARSFYTAIAQAFLSNEKLPNLECIQNANKGTHTSLMQRLRNRGERDREREREREMRRSSGLRAGSRRDRDRDFRRQLSIDTRPFRPASEGNPSDDPEPLPAHRQALGERLYPRVQAMQPAFASKITGMLLELSPAQLLLLLASEDSLRARVDEAMELIIAHGRENGADSILDLGLVDSSEKVQQENRKRHGSSRSVVDMDLDDTDDGDDNAPLFYQPGKRGFYTPRPGKNTEARLNCFRNIGRILGLCLLQNELCPITLNRHVIKVLLGRKVNWHDFAFFDPVMYESLRQLILASQSSDADAVFSAMDLAFAIDLCKEEGGGQVELIPNGVNIPVTPQNVYEYVRKYAEHRMLVVAEQPLHAMRKGLLDVLPKNSLEDLTAEDFRLLVNGCGEVNVQMLISFTSFNDESGENAEKLLQFKRWFWSIVEKMSMTERQDLVYFWTSSPSLPASEEGFQPMPSITIRPPDDQHLPTANTCISRLYVPLYSSKQILKQKLLLAIKTKNFGFV

binding [5]: binds
B6: EDDF3M, carboxy domain of EDD (aa 1877-2799) with Cys2768 to Ala (protein)
chain: B5 chain with C892A
